PubChem BioAssay AID1259308 – NCATS | 2017
Screen: 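Candidate targets for better recombinant protein yield in mammalian cells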 (primary screen). Cells: human HEK293 embryonic kidney cells stably expressing firefly luciferase (HEK-CMV-Luc2-Hygro). Reagents: single siRNA against human genes, 0.8 pmol siRNA per well. Time to read-out: 72 h. Measured: 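Luciferase light (ONE-Glo) measured on one replicate plate set and viability (CellTiter-Glo) on the other, scaled to a negative control siRNA, with robust z-scores and luciferase per cell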. Scale: total luciferase, z-score and total luciferase, % of control: higher = more reporter protein produced; luciferase per cell, z-score: higher = more reporter output per viable cell; viable cells, % of control: higher = more viable cells. Rule for the call: 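An siRNA counts as active if its total luciferase robust z-score exceeds 3; genes with two or more such siRNAs out of three were retested with fresh siRNAs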. Calls: active = raised luciferase; inactive = no rise.
Here is a random part of about 59,000 reagents. In the full data, about 1,510 (2.6%) are marked active. 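Calls use total luciferase alone and ignore viability, so some active siRNAs may act by altering cell number.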 Entries without a mark were called inactive. No sequences are given here.

The first 2 records, to show the layout:
| gene symbol | PubChem SID | total luciferase, z-score | total luciferase, % of control | luciferase per cell, z-score | viable cells, % of control |
| --- | --- | --- | --- | --- | --- |
| COQ6 | SID160731341 | 2.62 | 134 | 1.82 | 92.7 |
| COQ6 | SID160775635 | -0.536 | 71.2 | -1.11 | 107 |

Results, repeating the preview:
| gene symbol | PubChem SID | total luciferase, z-score | total luciferase, % of control | luciferase per cell, z-score | viable cells, % of control |
| --- | --- | --- | --- | --- | --- |
| COQ6 | SID160731341 | 2.62 | 134 | 1.82 | 92.7 |
| COQ6 | SID160775635 | -0.536 | 71.2 | -1.11 | 107 |
| COQ6 | SID160775645 | -0.739 | 67.2 | -0.715 | 90.6 |
| PIP5K1B | SID160719952 | -1.01 | 61.7 | -1.01 | 89.9 |
| PIP5K1B | SID160719953 | -0.184 | 78.2 | 0.315 | 80.5 |
| PIP5K1B | SID160719954 | -0.85 | 65 | -1.58 | 110 |
| DBX2 | SID160767698 | 0.356 | 89 | 0.106 | 96.7 |
| DBX2 | SID160767699 | 0.0239 | 82.4 | -0.0176 | 92.5 |
| DBX2 | SID160767700 | 0.726 | 96.3 | 1.27 | 77.1 |
| TUBB7P | SID160745067 | 0.144 | 84.8 | 0.467 | 83.7 |
| TUBB7P | SID160745068 | -0.00988 | 81.7 | 0.207 | 86.5 |
| TUBB7P | SID160745070 | -0.646 | 69 | -0.773 | 94.6 |
| CZ1P-ASNS | SID160767972 | 0.339 | 88.6 | 0.0873 | 96.8 |
| CZ1P-ASNS | SID160767973 | -0.701 | 67.9 | -0.864 | 95.3 |
| CZ1P-ASNS | SID160767974 | 2.51 | 132 | 1.37 | 103 |
| MIGA2 | SID160752875 | -0.692 | 68.1 | -0.188 | 80 |
| MIGA2 | SID160752876 | 0.674 | 95.3 | 0.816 | 85.9 |
| MIGA2 | SID160752879 | -0.355 | 74.8 | -0.479 | 94.9 |
| PCED1CP | SID160725917 | -0.891 | 64.2 | -0.502 | 81.8 |
| PCED1CP | SID160725918 | -0.137 | 79.2 | 0.357 | 80.5 |
| PCED1CP | SID160769815 | -0.471 | 72.5 | -0.626 | 95.6 |
| PPDPF | SID160748687 | 0.84 | 98.6 | 0.151 | 106 |
| PPDPF | SID160748688 | 0.327 | 88.4 | -0.367 | 109 |
| PPDPF | SID160748689 | 2.18 | 125 | 1.79 | 87.4 |
